According to PMC11747512:
These are yes or no findings as the source states them, for the method shown. In cells and extracts the contact can be indirect. These calls come from enrichment with a bait or labelling near it, and not all partners need be listed.

B1: GTSE1 (protein, UniProt Q9NYZ3 1-739)
chain: MEGGGGRDEPSACRAGDVNMDDPKKEDILLLADEKFDFDLSLSSSSANEDDEVFFGPFGHKERCIAASLELNNPVPEQPPLPTSESPFAWSPLAGEKFVEVYKEAHLLALHIESSSRNQAAQAAKPEDPRSQGVERFIQESKLKINLFEKEKEMKKSPTSLKRETYYLSDSPLLGPPVGEPRLLASSPALPSSGAQARLTRAPGPPHSAHALPRESCTAHAASQAATQRKPGTKLLLPRAASVRGRSIPGAAEKPKKEIPASPSRTKIPAEKESHRDVLPDKPAPGAVNVPAAGSHLGQGKRAIPVPNKLGLKKTLLKAPGSTSNLARKSSSGPVWSGASSACTSPAVGKAKSSEFASIPANSSRPLSNISKSGRMGPAMLRPALPAGPVGASSWQAKRVDVSELAAEQLTAPPSASPTQPQTPEGGGQWLNSSCAWSESSQLNKTRSIRRRDSCLNSKTKVMPTPTNQFKIPKFSIGDSPDSSTPKLSRAQRPQSCTSVGRVTVHSTPVRRSSGPAPQSLLSAWRVSALPTPASRRCSGLPPMTPKTMPRAVGSPLCVPARRRSSEPRKNSAMRTEPTRESNRKTDSRLVDVSPDRGSPPSRVPQALNFSPEESDSTFSKSTATEVAREEAKPGGDAAPSEALLVDIKLEPLAVTPDAASQPLIDLPLIDFCDTPEAHVAVGSESRPLIDLMTNTPDMNKNVAKPSPVVGQLIDLSSPLIQLSPEADKENVDSPLLKF
B2: EEF1E1 (protein, UniProt O43324 1-174)
chain: MAAAAELSLLEKSLGLSKGNKYSAQGERQIPVLQTNNGPSLTGLTTIAAHLVKQANKEYLLGSTAEEKAIVQQWLEYRVTQVDGHSSKNDIHTLLKDLNSYLEDKVYLTGYNFTLADILLYYGLHRFIVDLTVQEKEKYLNVSRWFCHIQHYPGIRQHLSSVVFIKNRLYTNSH
B3: RRP8 (protein, UniProt O43159 1-456)
chain: MFEEPEWAEAAPVAAGLGPVISRPPPAASSQNKGSKRRQLLATLRALEAASLSQHPPSLCISDSEEEEEERKKKCPKKASFASASAEVGKKGKKKCQKQGPPCSDSEEEVERKKKCHKQALVGSDSAEDEKRKRKCQKHAPINSAQHLDNVDQTGPKAWKGSTTNDPPKQSPGSTSPKPPHTLSRKQWRNRQKNKRRCKNKFQPPQVPDQAPAEAPTEKTEVSPVPRTDSHEARAGALRARMAQRLDGARFRYLNEQLYSGPSSAAQRLFQEDPEAFLLYHRGFQSQVKKWPLQPVDRIARDLRQRPASLVVADFGCGDCRLASSIRNPVHCFDLASLDPRVTVCDMAQVPLEDESVDVAVFCLSLMGTNIRDFLEEANRVLKPGGLLKVAEVSSRFEDVRTFLRAVTKLGFKIVSKDLTNSHFFLFDFQKTGPPLVGPKAQLSGLQLQPCLYKRR
B4: MYBBP1A (protein, UniProt Q9BQG0 1-1328)
chain: MESRDPAQPMSPGEATQSGARPADRYGLLKHSREFLDFFWDIAKPEQETRLAATEKLLEYLRGRPKGSEMKYALKRLITGLGVGRETARPCYSLALAQLLQSFEDLPLCSILQQIQEKYDLHQVKKAMLRPALFANLFGVLALFQSGRLVKDQEALMKSVKLLQALAQYQNHLQEQPRKALVDILSEVSKATLQEILPEVLKADLNIILSSPEQLELFLLAQQKVPSKLKKLVGSVNLFSDENVPRLVNVLKMAASSVKKDRKLPAIALDLLRLALKEDKFPRFWKEVVEQGLLKMQFWPASYLCFRLLGAALPLLTKEQLHLVMQGDVIRHYGEHVCTAKLPKQFKFAPEMDDYVGTFLEGCQDDPERQLAVLVAFSSVTNQGLPVTPTFWRVVRFLSPPALQGYVAWLRAMFLQPDLDSLVDFSTNNQKKAQDSSLHMPERAVFRLRKWIIFRLVSIVDSLHLEMEEALTEQVARFCLFHSFFVTKKPTSQIPETKHPFSFPLENQAREAVSSAFFSLLQTLSTQFKQAPGQTQGGQPWTYHLVQFADLLLNHSHNVTTVTPFTAQQRQAWDRMLQTLKELEAHSAEARAAAFQHLLLLVGIHLLKSPAESCDLLGDIQTCIRKSLGEKPRRSRTKTIDPQEPPWVEVLVEILLALLAQPSHLMRQVARSVFGHICSHLTPRALQLILDVLNPETSEDENDRVVVTDDSDERRLKGAEDKSEEGEDNRSSESEEESEGEESEEEERDGDVDQGFREQLMTVLQAGKALGGEDSENEEELGDEAMMALDQSLASLFAEQKLRIQARRDEKNKLQKEKALRRDFQIRVLDLVEVLVTKQPENALVLELLEPLLSIIRRSLRSSSSKQEQDLLHKTARIFTHHLCRARRYCHDLGERAGALHAQVERLVQQAGRQPDSPTALYHFNASLYLLRVLKGNTAEGCVHETQEKQKAGTDPSHMPTGPQAASCLDLNLVTRVYSTALSSFLTKRNSPLTVPMFLSLFSRHPVLCQSLLPILVQHITGPVRPRHQACLLLQKTLSMREVRSCFEDPEWKQLMGQVLAKVTENLRVLGEAQTKAQHQQALSSLELLNVLFRTCKHEKLTLDLTVLLGVLQGQQQSLQQGAHSTGSSRLHDLYWQAMKTLGVQRPKLEKKDAKEIPSATQSPISKKRKKKGFLPETKKRKKRKSEDGTPAEDGTPAATGGSQPPSMGRKKRNRTKAKVPAQANGTPTTKSPAPGAPTRSPSTPAKSPKLQKKNQKPSQVNGAPGSPTEPAGQKQHQKALPKKGVLGKSPLSALARKKARLSLVIRSPSLLQSGAKKKAQVRKAGKP
B5: NOP2 (protein, UniProt P46087 1-812)
chain: MGRKLDPTKEKRGPGRKARKQKGAETELVRFLPAVSDENSKRLSSRARKRAAKRRLGSVEAPKTNKSPEAKPLPGKLPKGISAGAVQTAGKKGPQSLFNAPRGKKRPAPGSDEEEEEEDSEEDGMVNHGDLWGSEDDADTVDDYGADSNSEDEEEGEALLPIERAARKQKAREAAAGIQWSEEETEDEEEEKEVTPESGPPKVEEADGGLQINVDEEPFVLPPAGEMEQDAQAPDLQRVHKRIQDIVGILRDFGAQREEGRSRSEYLNRLKKDLAIYYSYGDFLLGKLMDLFPLSELVEFLEANEVPRPVTLRTNTLKTRRRDLAQALINRGVNLDPLGKWSKTGLVVYDSSVPIGATPEYLAGHYMLQGASSMLPVMALAPQEHERILDMCCAPGGKTSYMAQLMKNTGVILANDANAERLKSVVGNLHRLGVTNTIISHYDGRQFPKVVGGFDRVLLDAPCSGTGVISKDPAVKTNKDEKDILRCAHLQKELLLSAIDSVNATSKTGGYLVYCTCSITVEENEWVVDYALKKRNVRLVPTGLDFGQEGFTRFRERRFHPSLRSTRRFYPHTHNMDGFFIAKFKKFSNSIPQSQTGNSETATPTNVDLPQVIPKSENSSQPAKKAKGAAKTKQQLQKQQHPKKASFQKLNGISKGADSELSTVPSVTKTQASSSFQDSSQPAGKAEGIREPKVTGKLKQRSPKLQSSKKVAFLRQNAPPKGTDTQTPAVLSPSKTQATLKPKDHHQPLGRAKGVEKQQLPEQPFEKAAFQKQNDTPKGPQPPTVSPIRSSRPPPAKRKKSQSRGNSQLLLS
B6: ribosome production factor 1 (protein, UniProt Q9H9Y2 1-349)
chain: MAKAGDKSSSSGKKSLKRKAAAEELQEAAGAGDGATENGVQPPKAAAFPPGFSISEIKNKQRRHLMFTRWKQQQRKEKLAAKKKLKKEREALGDKAPPKPVPKTIDNQRVYDETTVDPNDEEVAYDEATDEFASYFNKQTSPKILITTSDRPHGRTVRLCEQLSTVIPNSHVYYRRGLALKKIIPQCIARDFTDLIVINEDRKTPNGLILSHLPNGPTAHFKMSSVRLRKEIKRRGKDPTEHIPEIILNNFTTRLGHSIGRMFASLFPHNPQFIGRQVATFHNQRDYIFFRFHRYIFRSEKKVGIQELGPRFTLKLRSLQKGTFDSKYGEYEWVHKPREMDTSRRKFHL
B7: formin-binding protein 4 (protein, UniProt Q8N3X1 1-1017)
chain: MGKKSRAVPGRRPILQLSPPGPRGSTPGRDPEPEPDTEPDSTAAVPSQPAPSAATTTTTAVTAAAASDDSPSEDEQEAVQEVPRVVQNPPKPVMTTRPTAVKATGGLCLLGAYADSDDDDNDVSEKLAQSKETNGNQSTDIDSTLANFLAEIDAITAPQPAAPVGASAPPPTPPRPEPKEAATSTLSSSTSNGTDSTQTSGWQYDTQCSLAGVGIEMGDWQEVWDENTGCYYYWNTQTNEVTWELPQYLATQVQGLQHYQPSSVPGAETSFVVNTDIYSKEKTISVSSSKSGPVIAKREVKKEVNEGIQALSNSEEEKKGVAASLLAPLLPEGIKEEEERWRRKVICKEEPVSEVKETSTTVEEATTIVKPQEIMLDNIEDPSQEDLCSVVQSGESEEEEEQDTLELELVLERKKAELRALEEGDGSVSGSSPRSDISQPASQDGMRRLMSKRGKWKMFVRATSPESTSRSSSKTGRDTPENGETAIGAENSEKIDENSDKEMEVEESPEKIKVQTTPKVEEEQDLKFQIGELANTLTSKFEFLGINRQSISNFHVLLLQTETRIADWREGALNGNYLKRKLQDAAEQLKQYEINATPKGWSCHWDRDHRRYFYVNEQSGESQWEFPDGEEEEEESQAQENRDETLAKQTLKDKTGTDSNSTESSETSTGSLCKESFSGQVSSSSLMPLTPFWTLLQSNVPVLQPPLPLEMPPPPPPPPESPPPPPPPPPPAEDGEIQEVEMEDEGSEEPPAPGTEEDTPLKPSAQTTVVTSQSSVDSTISSSSSTKGIKRKATEISTAVVQRSATIGSSPVLYSQSAIATGHQAAGIGNQATGIGHQTIPVSLPAAGMGHQARGMSLQSNYLGLAAAPAIMSYAECSVPIGVTAPSLQPVQARGAVPTATIIEPPPPPPPPPPPPPPAPKMPPPEKTKKGRKDKAKKSKTKMPSLVKKWQSIQRELDEEDNSSSSEEDRESTAQKRIEEWKQQQLVSGMAERNANFEALPEDWRARLKRRKMAPNT
B8: ATF3 (protein, UniProt P18847 1-181)
chain: MMLQHPGQVSASEVSASAIVPCLSPPGSLVFEDFANLTPFVKEELRFAIQNKHLCHRMSSALESVTVSDRPLGVSITKAEVAPEEDERKKRRRERNKIAAAKCRNKKKEKTECLQKESEKLESVNAELKAQIEELKNEKQHLIYMLNLHRPTCIVRAQNGRTPEDERNLFIQQIKEGTLQS
B9: BBX (protein, UniProt Q8WY36 1-941)
chain: MKGSNRNKDHSAEGEGVGKRPKRKCLQWHPLLAKKLLDFSEEEEEEDEEEDIDKVQLLGADGLEQDVGETEDDESPEQRARRPMNAFLLFCKRHRSLVRQEHPRLDNRGATKILADWWAVLDPKEKQKYTDMAKEYKDAFMKANPGYKWCPTTNKPVKSPTPTVNPRKKLWAFPSDSSRDLPSPKKAKTEEMPQLNFGMADPTQMGGLSMLLLAGEHALGTPEVSSGTCRPDVSESPELRQKSPLFQFAEISSSTSHSDASTKQCQTSALFQFAEISSNTSQLGGAEPVKRCGKSALFQLAEMCLASEGMKMEESKLIKAKESDGGRIKELEKGKEEKEIKMEKTDETRLQKEAEFEKSAKENLRDSKELRNFEALQIDDIMAIKMEDPKEIRKEELEEDHKCSHFPDFSYSASSKIIISDVPSRKDHMCHPHGIMIIEDPAALNKPEKLKKKKKKSKMDRHGNDKSTPKKTCKKRQSSESDIESVIYTIEAVAKGDWGIEKLGDTPRKKVRTSSSGKGSILDAKPPKKKVKSREKKMSKEKSSDTTKESRPPDFISISASKNISGETPEGIKAEPLTPMEDALPPSLSGQAKPEDSDCHRKIETCGSRKSERSCKGALYKTLVSEGMLTSLRANVDRGKRSSGKGNSSDHEGCWNEESWTFSQSGTSGSKKFKKTKPKEDCLLGSAKLDEEFEKKFNSLPQYSPVTFDRKCVPVPRKKKKTGNVSSEPTKTSKGPFQSQKKNLFHKIVSKYKHKKEKPNVPEKGSGDKWSNKQLFLDAIHPTEAIFSEDRNTMEPVHKVKNIPSIFNTPEPTTTQEPLVGSQKRKARKTKITHLVRTADGRVSPAGGTLDDKPKEQLQRSLPKATETDCNDKCSHNTEVGETRSSTPEMPAVSAFFSLAALAEVAAMENVHRGQRSTPLTHDGQPKEMPQAPVLISCADQ

Biological target: AFAP-streptavidin-binding peptide-3xFLAG tag fusion protein (Anaplasma phagocytophilum)
Test: affinity purification with mass spectrometry

Row | Binder | binding
1 | B1 | binds
2 | B2 | binds
3 | B3 | binds
4 | B4 | binds
5 | B5 | binds
6 | B6 | binds
7 | B7 | binds
8 | B8 | binds
9 | B9 | binds
